# Where a name gives a salt, the structure may show the parent alone. This is one part of the list. Many values rest on one well or one pass, so single values are uncertain.
# Test system: patient-derived ovarian cancer cells (PDC)
# Assay: cell growth inhibition ratio vs untreated control (CCK8); higher = stronger inhibition of cell viability
# Conditions: 10 µM; 48 h
# Description: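 Natural product library (Topscience) screened at 10 µM final concentration for 48 h on ovarian cancer A2780 cells and patient-derived ovarian cancer cells (PDC) in 96-well plates; viability read by CCK8 and reported as inhibition ratio (%) relative to untreated control. Single-dose primary screen.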
row,Compound,cell growth inhibition ratio
1,C[C@H]1[C@H](OC(=O)CCC(=O)O)O[C@@H]2O[C@@]3(C)CC[C@H]4[C@H](C)CC[C@@H]1[C@@]24OO3 [Artesunate],13.3%
2,CC(C)=CCC[C@](C)(O[C@@H]1O[C@H](CO[C@@H]2O[C@@H](CO)[C@H](O)[C@H]2O)[C@@H](O)[C@H](O)[C@H]1O)[C@H]1CC[C@]2(C)[C@@H]1[C@H](O)C[C@@H]1[C@@]3(C)CC[C@H](O[C@@H]4O[C@H](CO)[C@@H](O)[C@H](O)[C@H]4O[C@@H]4O[C@H](CO)[C@@H](O)[C@H](O)[C@H]4O)C(C)(C)[C@@H]3CC[C@]12C [Ginsenoside Rc],-1.92%
3,COc1cc(/C=C/C(=O)O)ccc1O [Ferulic Acid],8.28%
4,COc1cc(C2Oc3ccc(C4Oc5cc(O)cc(O)c5C(=O)C4O)cc3OC2CO)ccc1O (stereo not drawn) [Isosilybin],-0.257%
5,COc1cc(C[C@H]2C(=O)OC[C@@H]2Cc2ccc(OC)c(OC)c2)ccc1O [Arctigenin],7.88%
6,O=c1c(O)c(-c2ccccc2)oc2cc(O)cc(O)c12 [Galangin],10.2%
7,COc1cc2c(cc1OC)[C@@H]1Cc3ccc(OC)c(OC)c3CN1CC2 [Tetrahydropalmatine hydrochloride],2.62%
8,"CC(=O)c1ccc(O)cc1O [2,4-Dihydroxyacetophenone]",8.14%
9,COC(=O)C1=CO[C@@H](O)[C@@H]2C(CO)=CC[C@H]12 [Genipin],-1.47%
10,CC[C@@]1(O)C(=O)OCc2c1cc1n(c2=O)Cc2cc3cc(O)ccc3nc2-1 [10-Hydroxycamptothecin],76.7%
11,C[C@@H]1C(=O)O[C@H]2C[C@@]34[C@H]5C[C@@H](C(C)(C)C)[C@]36[C@@H](OC(=O)[C@@H]6O)O[C@@]4(C(=O)O5)[C@]21O [Ginkgolide A],-5.84%
12,C[C@@H]1O[C@@H](Oc2cc(O)c3c(=O)c(O[C@@H]4O[C@@H](C)[C@H](O)[C@@H](O)[C@H]4O)c(-c4ccc(O)cc4)oc3c2)[C@H](O)[C@H](O)[C@H]1O [Kaempferitrin],11%
13,Nc1nc(=O)c2c([nH]1)NC[C@H](CNc1ccc(C(=O)N[C@@H](CCC(=O)O)C(=O)O)cc1)N2C=O [Calcium Levofolinate],-18.4%
14,OC[C@H]1O[C@H](OCC2O[C@@H](O)[C@H](O)[C@@H](O)[C@@H]2O)[C@H](O)[C@@H](O)[C@H]1O (stereo partly drawn) [Melibiose],-9.5%
15,CC[C@H]1OC(=O)[C@H](C)[C@@H](O[C@H]2C[C@@](C)(OC)[C@@H](O)[C@H](C)O2)[C@H](C)[C@@H](O[C@@H]2O[C@H](C)C[C@H](N(C)C)[C@H]2O)[C@](C)(O)C[C@@H](C)CN(C)[C@H](C)[C@@H](O)[C@]1(C)O [Azithromycin dihydrate],-45.9%
16,CC(C)=CCC[C@](C)(O)[C@H]1CC[C@]2(C)[C@@H]1[C@H](O)C[C@@H]1[C@@]3(C)CC[C@H](O)C(C)(C)[C@@H]3[C@@H](O[C@@H]3O[C@H](CO)[C@@H](O)[C@H](O)[C@H]3O[C@@H]3O[C@@H](C)[C@H](O)[C@@H](O)[C@H]3O)C[C@]12C [Ginsenoside Rg2],-0.0738%
17,C[C@H]1[C@H](C)CC[C@]2(C(=O)O[C@@H]3O[C@H](CO[C@@H]4O[C@H](CO)[C@@H](O[C@@H]5O[C@H](C)[C@H](O)[C@@H](O)[C@H]5O)[C@H](O)[C@H]4O)[C@@H](O)[C@H](O)[C@H]3O)CC[C@]3(C)C(=CC[C@@H]4[C@@]5(C)C[C@@H](O)[C@H](O)[C@@](C)(CO)[C@@H]5CC[C@]43C)[C@H]12 [Asiaticoside],6.07%
18,N[C@H]1C(O)O[C@H](CO)[C@@H](O)[C@@H]1O (stereo partly drawn) [Glucosamine],4.21%
19,C[C@@H]1CC[C@@]2(OC1)O[C@H]1C[C@H]3[C@@H]4CC=C5C[C@@H](O)CC[C@]5(C)[C@H]4CC[C@]3(C)[C@H]1[C@@H]2C [Diosgenin],10.2%

row,Compound,cell growth inhibition ratio
1,O=Cc1ccc(O)c(O)c1 [Protocatechualdehyde],-20.9%
2,CC(C)=CCC[C@](C)(O[C@@H]1O[C@H](CO)[C@@H](O)[C@H](O)[C@H]1O)[C@H]1CC[C@]2(C)[C@@H]1[C@H](O)C[C@@H]1[C@@]3(C)CC[C@H](O[C@@H]4O[C@H](CO)[C@@H](O)[C@H](O)[C@H]4O)C(C)(C)[C@@H]3CC[C@]12C [Ginsenoside F2],-13.2%
3,O=c1c2cc(O[C@@H]3O[C@H](CO)[C@@H](O)[C@H](O)[C@H]3O)c(O)cc2oc2cc(O)c([C@@H]3O[C@H](CO)[C@@H](O)[C@H](O)[C@H]3O)c(O)c12 [Neomangiferin],-6.66%
4,O=C(O[C@@H]1Cc2c(O)cc(O)cc2O[C@H]1c1cc(O)c(O)c(O)c1)c1cc(O)c(O)c(O)c1 [(-)-Gallocatechin gallate],1.48%
5,O=c1oc2ccccc2c(O)c1Cc1c(O)c2ccccc2oc1=O [Dicumarol],-2.44%
6,NCCCNCCCCNCCCN [Spermine],-15.1%
7,CC(C)=C[C@H]1C[C@](C)(O)[C@@H]2[C@H]3CC[C@@H]4[C@@]5(C)CC[C@H](OC6OC[C@H](O)[C@H](O[C@@H]7O[C@H](CO[C@@H]8O[C@H](CO)[C@@H](O)[C@H](O)[C@H]8O)[C@@H](O)[C@H](O)[C@H]7O[C@@H]7OC[C@@H](O)[C@H](O)[C@H]7O)[C@H]6O[C@@H]6O[C@@H](C)[C@H](O)[C@@H](O)[C@H]6O)C(C)(C)[C@@H]5CC[C@@]4(C)C34CO[C@@]2(C4)O1 (stereo partly drawn) [Jujuboside A],0.262%
8,C[C@H](CCC(=O)NCCS(=O)(=O)O)[C@H]1CC[C@H]2[C@@H]3[C@@H](O)C[C@@H]4C[C@H](O)CC[C@]4(C)[C@H]3CC[C@]12C [Tauroursodeoxycholic Acid],-5.04%
9,O=c1c(-c2ccc(O)cc2)coc2c([C@@H]3O[C@H](CO)[C@@H](O)[C@H](O)[C@H]3O)c(O)ccc12 [Puerarin (Kakonein)],-12.2%
10,C[N+](C)(C)CC(=O)O [Betaine hydrochloride],-7.89%
11,NC[C@H]1O[C@H](O[C@H]2[C@H](O)[C@@H](O[C@H]3O[C@H](CO)[C@@H](O)[C@H](N)[C@H]3O)[C@H](N)C[C@@H]2N)[C@H](O)[C@@H](O)[C@@H]1O [Kanamycin sulfate],0.833%
12,COc1ccc2[nH]cc(CCNC(C)=O)c2c1 [Melatonine],-47%
13,CO[C@H]1O[C@@H]2O[C@@]3(C)CC[C@H]4[C@H](C)CC[C@@H]([C@H]1C)[C@@]24OO3 [Artemether],-8.05%
14,CC(C)[C@H](NC(=O)[C@H](CC(=O)O)NC(=O)[C@H](CCCCN)NC(=O)[C@@H](N)CCCN=C(N)N)C(=O)N[C@@H](Cc1ccc(O)cc1)C(=O)O [Thymopentin],-13.3%
15,COc1c2c(cc3oc(CO[C@@H]4O[C@H](CO)[C@@H](O)[C@H](O)[C@H]4O)cc(=O)c13)O[C@H](C(C)(C)O)C2,-2.02%
16,CC1=CCC[C@H](C)C(=O)C[C@@H](C(C)C)C(=O)C1 [Curdione],13.9%
17,O=C(O)CCc1ccc(O)cc1 [Phloretic acid],-5.19%
18,CC(C)=CCC[C@](C)(O[C@@H]1O[C@H](CO)[C@@H](O)[C@H](O)[C@H]1O)[C@H]1CC[C@]2(C)[C@@H]1[C@H](O)C[C@@H]1[C@@]3(C)CC[C@H](O)C(C)(C)[C@@H]3[C@@H](O[C@@H]3O[C@H](CO)[C@@H](O)[C@H](O)[C@H]3O)C[C@]12C [Ginsenoside Rg1],-8.84%
19,NCCCC(=O)O [4-Aminobutyric acid],0.231%
